# Measurements published in PubChem BioAssay AID2685 (National Center for Advancing Translational Sciences (NCATS), 2010).
# Values joined by “and” are separate entries in the source; they are usually repeats but may differ in a detail not shown here. Equal values may be shown once. The list shows a part of the results. The main result of the screen is listed elsewhere. These columns were measured beside it and carry no call. The list favours compounds with an active or inconclusive main result. Words in brackets tell the shape of the fitted curve; partial curves, single points and poor fits give uncertain potencies.
# Assay: qHTS Assay for Lipid Storage Modulators in Drosophila S3 Cells;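 on cell number change: cells counted by Cell Tracker Red CMTPX staining in the red channel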
# Conditions: BODIPY lipid droplet fluorescence, 18-24 h; for cell number change: measured here: cell count max response, cells fed with added oleic acid
# In short: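 Drosophila S3 cells got compounds at several concentrations plus oleic acid (400 uM solution). Laser-scanning cytometry with 488 nm excitation read lipid droplets at 500-530 nm and cells at 575-640 nm. Percent activity was relative to 20 uM Triacsin C.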
# [1] = measured here: lipid fluorescence (Fed channel) AC50, cells fed with added oleic acid
# [2] = measured here: cell number channel AC50, cells fed with added oleic acid
SMILES,cell number change [%],AC50 [1],AC50 [2]
Cc1ccc(NC(=O)CSc2nnc(Cc3ccccc3)c(=O)[nH]2)c(C)c1,15.1,"29.1 µM [rising, single point]",–
CCCC(=O)Nc1ccc(NC(=O)c2cc3ccccc3o2)c(OC)c1,-24.1,–,–
COc1cccc(N2CC(C(=O)Nc3c(C(N)=O)oc4ccccc34)CC2=O)c1 (configuration not stated),25,–,"6.51 µM [falling, single point]"
CC(=O)c1cc(OC(=O)N2CCOCC2)ccc1OC(=O)N1CCOCC1,13.5,"0.146 µM [falling, full curve, poor fit]",–
CCOC(=O)N1CCN(S(=O)(=O)c2cc([N+](=O)[O-])ccc2C)CC1,142,–,–
O=C(CN1C(=O)NC2(CCCCC2)C1=O)Nc1cccc(S(=O)(=O)N2CCCC2)c1,-52.5,"29.1 µM [falling, single point]","14.6 µM [falling, partial curve, poor fit]"
COc1cc(OC)cc(C(=O)NCC(=O)OCc2csc(-c3ccccc3)n2)c1,43,"3.26 µM [rising, single point]","7.31 µM [rising, partial curve]"
NC(N)=NC(N)=Nc1ccc(SC(F)(F)F)cc1,-0.23,"1.03 µM [rising, full curve]","1.64 µM [rising, partial curve, poor fit]"
COc1ccc(/C=C2\COc3ccccc3C2=O)cc1OC,-49.2,"23.1 µM [falling, partial curve, poor fit]","20.6 µM [falling, partial curve, poor fit]"
O=C(CCNC(=O)N1CC(=O)Nc2ccccc21)Nc1ccc(F)c(Cl)c1,-14.4,"13 µM [falling, single point]",–
COC(=O)\C(C(C)=O)=C(/C=C/C=C/N(C)C)N(C)C,-12.1,"1.16 µM [falling, full curve, poor fit]",–
c1ccc2c(c1)[nH]c1c(N3CCOCC3)ncnc12,46.6,–,"18.4 µM [rising, single point]"
CC(=O)OCC(=O)Nc1ccc(SC(F)F)cc1,71.6,"29.1 µM [rising, single point]",–
CNC(=O)C1=C(C)NC(=S)NC1c1cccs1 (configuration not stated),-4.52,–,–
Cc1sc2ncnc(N3CCC(C(=O)Nc4nnc(SCc5ccccc5F)s4)CC3)c2c1C,68.5,–,"3.26 µM [rising, full curve]"
COC(=O)C1=C(C)NC(C)=C(C(=O)OC)C1c1ccc(N(C)C)cc1,28.9,–,–
CCOCCCNC(=O)CN1C(=O)COc2ccc(S(=O)(=O)N3CCC(C)CC3)cc21,18.6,–,–
CN1CCN(C(=O)C2CC(=O)N(c3ccc(F)c(Cl)c3)C2)CC1 (configuration not stated),12,"0.651 µM [falling, full curve, poor fit]",–
N#CSCC(=O)c1cccc2ccccc12,-28.4,"29.1 µM [falling, single point]",–
CCc1nnc(NC(=O)c2ccc(S(=O)(=O)N3CCCc4ccccc43)cc2)o1,0.884,"4.61 µM [falling, partial curve]",–

SMILES,cell number change [%],AC50 [1],AC50 [2]
CCOC(=O)N1CCN(CC(=O)Nc2sccc2C#N)CC1,-18.1,–,–
COc1cc2c(c(OC)c1OC)-c1c(cc3c(c1O)OCO3)C[C@@H](C)[C@@H](C)C2,-38,"16.4 µM [falling, partial curve]","25.9 µM [falling, single point]"
Cc1cccc(C(=O)O)c1NC(=O)Cc1cccc2ccccc12,8.84,–,–
COc1cccc(-c2n[nH]c(=S)n2Cc2ccco2)c1,6.24,"0.461 µM [rising, full curve, poor fit]",–
COc1ccc(S(=O)(=O)N(C)CC(=O)NCc2ccccn2)cc1,9.13,"6.51 µM [falling, single point]",–
O=C(NCC1COc2ccccc2O1)c1ccc(Cl)c(S(=O)(=O)N2CCOCC2)c1 (configuration not stated),10,–,–
CC(C)C[C@H](NC(=O)C1CC(=O)N(c2ccc(F)cc2)C1)C(=O)N1CCCCC1 (some centres not stated),24.8,"11.6 µM [rising, partial curve]",–
CC(C)(O)C#Cc1ccc(C(=O)NCc2ccccc2F)cc1,–,"1.84 µM [rising, partial curve]","2.06 µM [rising, partial curve]"
Cc1ccc(C(=O)NCC(=O)OCC(=O)N(CC(C)C)c2c(N)n(Cc3ccccc3)c(=O)[nH]c2=O)cc1,6.36,"1.3 µM [falling, full curve]",–
CCCCn1c(O)c(/C=C2\C=NN=C2c2ccccc2)sc1=S,-17.8,–,–
Cn1c(=O)c2c(nc(Oc3ccccc3)n2C)n(C)c1=O,22.7,"6.51 µM [falling, single point] and 130 nM [falling, full curve, poor fit]","0.164 µM [falling, full curve, poor fit]"
OC(CN1CCOCC1)CN1CCOCC1,7.08,–,–
CCC(=O)Nc1ccc(C(=O)N/N=C/c2ccccc2[N+](=O)[O-])cc1,-17,–,–
Cc1ncc([N+](=O)[O-])n1CC(=O)N/N=C/c1ccc(F)cc1,-11.2,"1.84 µM [falling, partial curve]",–
CCOC(=O)CC(NC(=O)c1ccccc1F)c1ccc(C)cc1 (configuration not stated),18.6,–,–
COC(=O)c1c[nH]n2c(=O)c(Cc3ccc(F)cc3Cl)c(C)nc12,-31.8,"16.4 µM [falling, partial curve]","4.11 µM [falling, partial curve]"
CSCCC(NS(=O)(=O)c1ccc2ccccc2c1)C(=O)O (configuration not stated),14.4,"5.8 µM [falling, single point]",–
COc1ccc(Cl)cc1C(=O)Nc1ccc(N(C)C(C)=O)cc1,-21.9,"29.1 µM [rising, single point]","1.84 µM [rising, partial curve, poor fit]"
COc1nc(N(C)C)nc(N(C)c2cc(Cl)cc(Cl)c2)n1,15.2,"29.1 µM [rising, single point]",–
O=C1C(NS(=O)(=O)c2cccs2)=C(N2CCN(c3cccc(C(F)(F)F)c3)CC2)C(=O)c2ccccc21,-86.1,"29.1 µM [falling, single point]","8.2 µM [falling, partial curve]"

# Single entries from the list:
# OC(CN1CCOCC1)CN1CCOCC1 – cell number change [%]: 7.08
# CC(C)(O)C#Cc1ccc(C(=O)NCc2ccccc2F)cc1 – AC50 [1]: 1.84 µM [rising, partial curve]
